This is an account of results in the supplement of paper PMC12872613.

Each structure is given as a SMILES string. Counter-ions that a name gives are not always drawn. This is one part of the list. Cut-off read from the data, not from the text of the source: active = 0.7 or more and inactive = the rest. Repeats are few or missing, and single values can be far off.

This assay concerns MiaPaCa-2 CLSA-25. As to the kind of experiment: cell death relative to DMSO vehicle (fraction); higher = more cytotoxic. As to conditions: 5 µM; treatment time 48 h; medium cystine 25 µM.

Turning to `CC[C@H]1[C@@H](O)[C@@H]2[C@H](CC[C@]3(C)[C@@H]([C@H](C)CCC(=O)O)CC[C@@H]23)[C@@]2(C)CC[C@@H](O)C[C@@H]12` [Obeticholic Acid], the cell death was inactive: 0.157.

Consider `O=C(/C=C/c1ccc(O)cc1)c1ccc(O)cc1O` [Isoliquiritigenin], for which the cell death is inactive: 0.0182. Then `COc1cn(-c2ccc(-n3cccn3)cc2F)nc(-c2ccnn2-c2ccccc2)c1=O`, with inactive: 0.0465; and `CN(C)CCOC(=O)COc1ccc(Cl)cc1` [Meclofenoxate hydrochloride], with inactive: 0.0701; and `CC1(C)[C@@H](O[C@H]2O[C@H](C(=O)O)[C@@H](O)[C@H](O)[C@H]2O[C@@H]2O[C@H](C(=O)O)[C@@H](O)[C@H](O)[C@H]2O)CC[C@]2(C)[C@H]3C(=O)C=C4[C@@H]5C[C@@](C)(C(=O)O)CC[C@]5(C)CC[C@@]4(C)[C@]3(C)CC[C@@H]12` [Glycyrrhizin], with inactive: 0.262.

Turning to `Cc1cnc(C(=O)O)c[n+]1[O-]` [Acipimox], the cell death is inactive: 0.114.

Consider `OCC1OC(O)CC(O)C1O` [2-Deoxy-D-glucose], for which the cell death was inactive: 0.198. The value for `O=C1NCC2(CCN(CCc3ccccc3)CC2)O1` [Fenspiride hydrochloride] was inactive: -0.0367; that for `CCN(CC)C(=O)/C(C#N)=C/c1cc(O)c(O)c([N+](=O)[O-])c1` [Entacapone] was inactive: 0.361. The value for `NS(=O)(=O)c1cc2c(cc1Cl)NC(C(Cl)Cl)NS2(=O)=O` (stereo not given) [Trichlormethiazide] was inactive: -0.00986.

For `Cc1ncc(C[n+]2csc(CCO)c2C)c(N)n1` [Thiamine hydrochloride], the cell death was inactive: 0.131. The value for `c1ccc(-c2ccc(C(c3ccccc3)n3ccnc3)cc2)cc1` (stereo not given) [Bifonazole] was inactive: 0.189.

`Cc1ccc(C)c(OCCCC(C)(C)C(=O)O)c1` [Gemfibrozil]: the cell death is active: 0.776. As to `NC(=O)NS(=O)(=O)c1ccc(N)cc1` [Sulfanilylurea], the cell death is inactive: -0.0292. Then `CC1(C)O[C@@H]2C[C@H]3[C@@H]4CCC5=CC(=O)C=C[C@]5(C)[C@@]4(F)[C@@H](O)C[C@]3(C)[C@]2(C(=O)CO)O1` [Triamcinolone acetonide], with inactive: -0.00107; and `Cc1cn([C@@H]2C[C@@H](O)[C@H](CO)O2)c(=O)[nH]c1=O` [Telbivudine], with inactive: 0.228.

`CC(=O)O[C@]1(C(C)=O)CC[C@H]2[C@@H]3C=C(C)C4=CC(=O)CC[C@]4(C)[C@H]3CC[C@@]21C` [Megestrol acetate]: the cell death is inactive: -0.011.

Turning to `COc1ccc2[nH]c(C(=O)N3CCC(CC(C)(C)O)CC3)cc2c1`, the cell death is active: 0.732. Then `CCOC(=O)[C@H](CCc1ccccc1)N[C@@H](C)C(=O)N1CCC[C@H]1C(=O)O` [Enalapril Maleate], with inactive: 0.18; and `C[C@H]1[C@H](C)CC[C@]2(C(=O)O[C@@H]3O[C@H](CO[C@@H]4O[C@H](CO)[C@@H](O[C@@H]5O[C@H](C)[C@H](O)[C@@H](O)[C@H]5O)[C@H](O)[C@H]4O)[C@@H](O)[C@H](O)[C@H]3O)CC[C@]3(C)C(=CC[C@@H]4[C@@]5(C)C[C@@H](O)[C@H](O)[C@@](C)(CO)[C@@H]5CC[C@]43C)[C@H]12` [Asiaticoside], with inactive: 0.129.

`O=C(O)c1cccnc1Nc1cccc(C(F)(F)F)c1` [Niflumic acid]: the cell death is active: 0.8. For `CC(C)(O)CNc1nc(Nc2ccnc(C(F)(F)F)c2)nc(-c2cccc(C(F)(F)F)n2)n1` [Enasidenib], the cell death is inactive: 0.163.

`COC(=O)c1sccc1S(=O)(=O)Nc1ccc(Nc2ccccc2)cc1OC`: the cell death was inactive: 0.195. The value for `Cc1ccc(Cl)c(Nc2ccccc2C(=O)O)c1Cl` [Meclofenamate Sodium] was inactive: 0.18; that for `CC(=O)[C@H]1CC[C@H]2[C@@H]3C[C@H](C)C4=CC(=O)CC[C@]4(C)[C@H]3[C@@H](O)C[C@]12C` [Medrysone] was inactive: 0.0524; that for `Cc1ccc(-c2csc3ncnc(SCCC(=O)O)c23)cc1` was inactive: 0.667. `CCCCc1nc(Cl)c(CO)n1Cc1ccc(-c2ccccc2-c2nnn[nH]2)cc1` [Losartan]: the cell death is inactive: 0.127. As for `N=C(N)NCCN1CCCCCCC1` [Guanethidine Monosulfate], the cell death was inactive: 0.573. `NCCS(=O)(=O)O` [Taurine]: the cell death is inactive: 0.0795. In the case of `CC(C)(C)c1ccc(-c2nc3ccccc3[nH]2)cc1`, the cell death was inactive: 0.644. As for `CCCSc1nc(N[C@@H]2C[C@H]2c2ccc(F)c(F)c2)c2nnn([C@@H]3C[C@H](OCCO)[C@@H](O)[C@H]3O)c2n1` [Ticagrelor], the cell death is inactive: 0.395. As to `CCCC(C(=O)OCCN(CC)CC)(c1ccccc1)c1ccccc1` [Proadifen hydrochloride], the cell death is inactive: 0.537. For `Cc1oncc1C(=O)Nc1ccc(C(F)(F)F)cc1` [Leflunomide], the cell death was active: 0.77. The value for `CC(=O)Oc1c(C)c(C)c2c(c1C)CCC(C)(CCC[C@H](C)CCC[C@H](C)CCCC(C)C)O2` (stereo not given in full) [Vitamin E Acetate] was inactive: 0.353. The value for `CCCCCCCCCCCC1=C(O)C(=O)C=C(O)C1=O` [Embelin] was inactive: 0.259; that for `O=C(O)c1ccc2cc(-c3ccc(O)c(C45CC6CC(CC(C6)C4)C5)c3)ccc2c1` was active: 0.702; that for `O[C@H]1[C@H](O)[C@@H](O)[C@H](O)[C@@H](O)[C@H]1O` [Inositol] was inactive: 0.072. The value for `CCCCC(O)c1ccccc1` (stereo not given) [Fenipentol] was inactive: 0.0859. Regarding `COC(=O)[C@H](CC(C)C)NC(=O)c1ccc(NC[C@@H](N)CS)cc1-c1cccc2ccccc12`, the cell death is inactive: 0.117. Then `CN1CCc2nc(C(=O)N[C@@H]3C[C@@H](C(=O)N(C)C)CC[C@@H]3NC(=O)C(=O)Nc3ccc(Cl)cn3)sc2C1` [Edoxaban], with inactive: 0.148; and `CC(C)c1ccc2c(c1)c(SC(C)(C)C)c(CC(C)(C)C(=O)O)n2Cc1ccc(Cl)cc1`, with inactive: 0.279; and `Cn1c(=O)cc(C(=O)Nc2ccc3c(c2)OCCO3)c2ccccc21`, with inactive: 0.0843. On to `Cc1ccc(S(=O)(=O)Cc2nc(-c3ccc(C(=O)NCc4cccnc4)cc3)oc2C)cc1`, for which the cell death is active: 0.727. As for `Cn1c(=O)cc(N2CCC[C@@H](N)C2)n(Cc2cc(F)ccc2C#N)c1=O` [Trelagliptin], the cell death was inactive: 0.268.

As for `O=C(Oc1cccc(F)c1OC(=O)c1cccc(O)c1)c1cccc(O)c1`, the cell death is inactive: 0.158. The value for `CC(O)Cn1cnc2c1c(=O)n(C)c(=O)n2C` (stereo not given) [Proxyphylline] was inactive: 0.0984. Then `Nc1ccc(O)c(C(=O)O)c1` [Mesalamine], with inactive: 0.562.

As for `CC(C)(OCc1nn(Cc2ccccc2)c2ccccc12)C(=O)O` [Bindarit], the cell death was active: 0.703.

In the case of `O=C1c2ccccc2C(=O)c2c1ccc(O)c2O` [Alizarin], the cell death is inactive: 0.00749. Then `O=C1C(=Cc2cccnc2)C(=O)c2ccccc21`, with inactive: 0.078; and `COc1cc(O)c(CC=C(C)C)c(O)c1C(=O)/C=C/c1ccc(O)cc1` [Xanthohumol], with inactive: 0.0605.

Take `CC1=C(/C=C/C(C)=C/C=C/C(C)=C/C(=O)Nc2ccc(O)cc2)C(C)(C)CCC1` [Fenretinide]: the cell death is inactive: 0.0795. The value for `CC1=NN(c2ccccc2)C(=O)C1` [Edaravone] was inactive: 0.115; that for `CCCC(=O)O[C@]1(C(=O)CO)CC[C@H]2[C@@H]3CCC4=CC(=O)CC[C@]4(C)[C@H]3[C@@H](O)C[C@@]21C` [Hydrocortisone butyrate] was inactive: 0.142. The value for `CCC(C)n1ncn(-c2ccc(N3CCN(c4ccc(OCC5COC(Cn6cncn6)(c6ccc(Cl)cc6Cl)O5)cc4)CC3)cc2)c1=O` (stereo not given) [Itraconazole] was active: 0.761; that for `COc1cc(CCC(=O)O)ccc1O` [Hydroferulic acid] was inactive: 0.0195; that for `CN(CCOc1ccc(CC2SC(=O)NC2=O)cc1)c1ccccn1` (stereo not given) [Rosiglitazone] was inactive: -0.0302. `O=C(O)c1cc(-c2ccc(F)cc2F)ccc1O` [Diflunisal]: the cell death is inactive: 0.049. Then `N[C@@H](Cc1c[nH]cn1)C(=O)O` [histidine], with inactive: 0.109; and `CCCCC(=O)O[C@]1(C(=O)CO)[C@@H](C)C[C@H]2[C@@H]3CCC4=CC(=O)C=C[C@]4(C)[C@@]3(F)[C@@H](O)C[C@@]21C` [Betamethasone 17-valerate], with inactive: 0.0104. Then `COc1ccc2cc(CCC(C)=O)ccc2c1` [Nabumetone], with inactive: -0.031. As for `CCC(=O)O[C@@H](O[P@](=O)(CCCCc1ccccc1)CC(=O)N1C[C@H](C2CCCCC2)C[C@H]1C(=O)O)C(C)C` [Fosinopril sodium], the cell death is inactive: 0.16. For the molecule `Cc1cccc(C)c1OCC(C)N` (stereo not given) [Mexiletine hydrochloride], the cell death is active: 0.794. The value for `CC(C)[C@H](N)C(=O)O` [L-Valine] was inactive: 0.118; that for `N[C@@H](CS)C(=O)O` [cysteine] was inactive: 0.109; that for `COc1ccccc1OCC(O)CN1CCN(CC(=O)Nc2c(C)cccc2C)CC1` (stereo not given) [Ranolazine dihydrochloride] was inactive: 0.135. With `C[C@@H]1CCO[C@H]2Cn3cc(C(=O)NCc4ccc(F)cc4F)c(=O)c(O)c3C(=O)N12` [Dolutegravir], the cell death is inactive: 0.214. Then `CC(C)NCC(O)c1ccc(O)c(O)c1` (stereo not given) [Isoprenaline hydrochloride], with inactive: 0.368; and `CC1=CC(=O)c2ccccc2C1=O` [Menadione], with inactive: 0.0204. Turning to `Cc1cc(-c2ccccc2)nnc1NCCN1CCOCC1` [Minaprine dihydrochloride], the cell death was inactive: 0.046.
